# Experimental data published in the supplement of paper PMC8728848.
# Some of the results follow.
# Experiments:
# Test in all cases: glycan array binding signal (z-score within array); higher = stronger binding
# Conditions in all cases: glycan notation: IUPAC condensed, linker removed
# [1] = biological target: Gal(b1-4)GlcNAc(b1-2)Man(a1-6)[Man(a1-3)]Man(b1-4)GlcNAc(b1-4)GlcNAc
# Procedure, shortened: (§1)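 Glycan array data came from 3228 arrays in the Consortium for Functional Glycomics database, and only arrays with an available protein sequence were kept. Glycan names were put into IUPAC-condensed notation, and columns mapping to the same glycan were averaged. The binding signal is a within-array Z-score, averaged across arrays of one protein sequence run at different concentrations or buffers and across linkers. A negative Z-score can be read as non-binding.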
# [2] = biological target: Gal(b1-4)GlcNAc(b1-2)[Gal(b1-4)GlcNAc(b1-4)]Man(a1-3)[Gal(b1-4)GlcNAc(b1-2)Man(a1-6)]Man(b1-4)GlcNAc(b1-4)GlcNAc
# Procedure, shortened: as §1
# [3] = biological target: Gal(b1-4)GlcNAc(b1-2)[Gal(b1-4)GlcNAc(b1-4)]Man(a1-3)[Gal(b1-4)GlcNAc(b1-2)[Gal(b1-4)GlcNAc(b1-6)]Man(a1-6)]Man(b1-4)GlcNAc(b1-4)GlcNAc
# Procedure, shortened: as §1
# [4] = biological target: Gal(b1-4)GlcNAc(b1-2)[Gal(b1-4)GlcNAc(b1-4)]Man(a1-3)[GlcNAc(b1-4)][Gal(b1-4)GlcNAc(b1-2)Man(a1-6)]Man(b1-4)GlcNAc(b1-4)GlcNAc
# Procedure, shortened: as §1
# [5] = biological target: Gal(b1-4)GlcNAc(b1-2)[Gal(b1-4)GlcNAc(b1-4)]Man(a1-3)[GlcNAc(b1-4)][Gal(b1-4)GlcNAc(b1-2)[Gal(b1-4)GlcNAc(b1-6)]Man(a1-6)]Man(b1-4)GlcNAc(b1-4)GlcNAc
# Procedure, shortened: as §1
# [6] = biological target: Gal(b1-4)GlcNAc(b1-2)[Gal(b1-4)GlcNAc(b1-6)]Man(a1-6)[Gal(b1-4)GlcNAc(b1-2)Man(a1-3)]Man(b1-4)GlcNAc(b1-4)GlcNAc
# Procedure, shortened: as §1
# [7] = biological target: Gal(b1-4)GlcNAc(b1-2)[Gal(b1-4)GlcNAc(b1-6)]Man(a1-6)[Gal(b1-4)GlcNAc(b1-2)Man(a1-3)]Man(b1-4)GlcNAc(b1-4)[Fuc(a1-6)]GlcNAc
# Procedure, shortened: as §1
# [8] = biological target: Gal(b1-4)GlcNAc(b1-2)[Gal(b1-4)GlcNAc(b1-6)]Man(a1-6)[GlcNAc(b1-4)][Gal(b1-4)GlcNAc(b1-2)Man(a1-3)]Man(b1-4)GlcNAc(b1-4)GlcNAc
# Procedure, shortened: as §1
# [9] = biological target: Gal(b1-4)GlcNAc(b1-2)[Gal(b1-4)GlcNAc(b1-6)]Man(a1-6)[GlcNAc(b1-4)][Gal(b1-4)GlcNAc(b1-2)[Gal(b1-4)GlcNAc(b1-4)]Man(a1-3)]Man(b1-4)GlcNAc(b1-4)[Fuc(a1-6)]GlcNAc
# Procedure, shortened: as §1
# [10] = biological target: Gal(b1-4)GlcNAc(b1-3)Gal(b1-3)GalNAc
# Procedure, shortened: as §1
# [11] = biological target: Gal(b1-4)GlcNAc(b1-3)Gal(b1-3)GlcNAc
# Procedure, shortened: as §1
# [12] = biological target: Gal(b1-4)GlcNAc(b1-3)Gal(b1-4)Glc
# Procedure, shortened: as §1
# [13] = biological target: Gal(b1-4)GlcNAc(b1-3)Gal(b1-4)GlcNAc
# Procedure, shortened: as §1
# [14] = biological target: Gal(b1-4)GlcNAc(b1-3)Gal(b1-4)GlcNAc(b1-2)Man(a1-3)[Gal(b1-4)GlcNAc(b1-3)Gal(b1-4)GlcNAc(b1-2)Man(a1-6)]Man(b1-4)GlcNAc(b1-4)GlcNAc
# Procedure, shortened: as §1
# [15] = biological target: Gal(b1-4)GlcNAc(b1-3)Gal(b1-4)GlcNAc(b1-2)Man(a1-3)[Gal(b1-4)GlcNAc(b1-3)Gal(b1-4)GlcNAc(b1-2)Man(a1-6)]Man(b1-4)GlcNAc(b1-4)[Fuc(a1-6)]GlcNAc
# Procedure, shortened: as §1
# [16] = biological target: Gal(b1-4)GlcNAc(b1-3)Gal(b1-4)GlcNAc(b1-2)[Gal(b1-4)GlcNAc(b1-3)Gal(b1-4)GlcNAc(b1-6)]Man(a1-6)[Gal(b1-4)GlcNAc(b1-3)Gal(b1-4)GlcNAc(b1-2)Man(a1-3)]Man(b1-4)GlcNAc(b1-4)GlcNAc
# Procedure, shortened: as §1
# [17] = biological target: Gal(b1-4)GlcNAc(b1-3)Gal(b1-4)GlcNAc(b1-2)[Gal(b1-4)GlcNAc(b1-3)Gal(b1-4)GlcNAc(b1-6)]Man(a1-6)[Gal(b1-4)GlcNAc(b1-3)Gal(b1-4)GlcNAc(b1-2)Man(a1-3)]Man(b1-4)GlcNAc(b1-4)[Fuc(a1-6)]GlcNAc
# Procedure, shortened: as §1
# [18] = biological target: Gal(b1-4)GlcNAc(b1-3)Gal(b1-4)GlcNAc(b1-3)Gal(b1-4)GlcNAc
# Procedure, shortened: as §1
# [19] = biological target: Gal(b1-4)GlcNAc(b1-3)Gal(b1-4)GlcNAc(b1-3)Gal(b1-4)GlcNAc(b1-2)Man(a1-3)[Gal(b1-4)GlcNAc(b1-3)Gal(b1-4)GlcNAc(b1-3)Gal(b1-4)GlcNAc(b1-2)Man(a1-6)]Man(b1-4)GlcNAc(b1-4)GlcNAc
# Procedure, shortened: as §1
# [20] = biological target: Gal(b1-4)GlcNAc(b1-3)Gal(b1-4)GlcNAc(b1-3)Gal(b1-4)GlcNAc(b1-2)Man(a1-3)[Gal(b1-4)GlcNAc(b1-3)Gal(b1-4)GlcNAc(b1-3)Gal(b1-4)GlcNAc(b1-2)Man(a1-6)]Man(b1-4)GlcNAc(b1-4)[Fuc(a1-6)]GlcNAc
# Procedure, shortened: as §1
# [21] = biological target: Gal(b1-4)GlcNAc(b1-3)Gal(b1-4)GlcNAc(b1-3)Gal(b1-4)GlcNAc(b1-2)[Gal(b1-4)GlcNAc(b1-3)Gal(b1-4)GlcNAc(b1-3)Gal(b1-4)GlcNAc(b1-6)]Man(a1-6)[Gal(b1-4)GlcNAc(b1-3)Gal(b1-4)GlcNAc(b1-3)Gal(b1-4)GlcNAc(b1-2)Man(a1-3)]Man(b1-4)GlcNAc(b1-4)[Fuc(a1-6)]GlcNAc
# Procedure, shortened: as §1
# [22] = biological target: Gal(b1-4)GlcNAc(b1-3)Gal(b1-4)GlcNAc(b1-3)Gal(b1-4)GlcNAc(b1-3)Gal(b1-4)GlcNAc(b1-2)Man(a1-3)[Gal(b1-4)GlcNAc(b1-3)Gal(b1-4)GlcNAc(b1-3)Gal(b1-4)GlcNAc(b1-3)Gal(b1-4)GlcNAc(b1-2)Man(a1-6)]Man(b1-4)GlcNAc(b1-4)GlcNAc
# Procedure, shortened: as §1
binder,measurement,setting,value
CM2 (Cordyceps militaris) (protein) MEIAEQNVGKSCAIVNLIPPKEGSNIWTAKQVTIARNLPPNRGTGRHQIDWSFGPVKVTGYVDTTNWEIGVTVSIMGIDLGTVYGNLRDGVVLNVDLFLAKGQVRFYLKNGNEVWVHLSVEIRFDGKFEGDYKIITV,glycan array binding signal (z-score),[1],0.512
same,glycan array binding signal (z-score),[2],-1.42
same,glycan array binding signal (z-score),[3],-0.541
same,glycan array binding signal (z-score),[4],0.043
same,glycan array binding signal (z-score),[5],-1.63
same,glycan array binding signal (z-score),[6],-0.245
same,glycan array binding signal (z-score),[7],-0.7
same,glycan array binding signal (z-score),[8],0.26
same,glycan array binding signal (z-score),[9],-0.752
same,glycan array binding signal (z-score),[10],0.081
same,glycan array binding signal (z-score),[11],1.33
same,glycan array binding signal (z-score),[12],-0.034
same,glycan array binding signal (z-score),[13],-0.507
same,glycan array binding signal (z-score),[14],1.33
same,glycan array binding signal (z-score),[15],0.545
same,glycan array binding signal (z-score),[16],-1.47
same,glycan array binding signal (z-score),[17],2.29
same,glycan array binding signal (z-score),[18],-1.69
same,glycan array binding signal (z-score),[19],0.017
same,glycan array binding signal (z-score),[20],3.05
same,glycan array binding signal (z-score),[21],1.02
same,glycan array binding signal (z-score),[22],0.001

# Two consecutive records out of the list so far, quoted:
binder,measurement,setting,value
CM2 (Cordyceps militaris) (protein) MEIAEQNVGKSCAIVNLIPPKEGSNIWTAKQVTIARNLPPNRGTGRHQIDWSFGPVKVTGYVDTTNWEIGVTVSIMGIDLGTVYGNLRDGVVLNVDLFLAKGQVRFYLKNGNEVWVHLSVEIRFDGKFEGDYKIITV,glycan array binding signal (z-score),[14],1.33
same,glycan array binding signal (z-score),[15],0.545
